Results are given in words; binding and its absence hold for the method and conditions named. In cells and extracts the contact can be indirect. Some binding calls cover weakened binding; strength is not graded here. Where a sequence is shown, tags or fusion partners need not be part of it.
T1: GFP-tagged PARP15^FL H559Y (human) (UniProt Q460N3)
T1 sequence: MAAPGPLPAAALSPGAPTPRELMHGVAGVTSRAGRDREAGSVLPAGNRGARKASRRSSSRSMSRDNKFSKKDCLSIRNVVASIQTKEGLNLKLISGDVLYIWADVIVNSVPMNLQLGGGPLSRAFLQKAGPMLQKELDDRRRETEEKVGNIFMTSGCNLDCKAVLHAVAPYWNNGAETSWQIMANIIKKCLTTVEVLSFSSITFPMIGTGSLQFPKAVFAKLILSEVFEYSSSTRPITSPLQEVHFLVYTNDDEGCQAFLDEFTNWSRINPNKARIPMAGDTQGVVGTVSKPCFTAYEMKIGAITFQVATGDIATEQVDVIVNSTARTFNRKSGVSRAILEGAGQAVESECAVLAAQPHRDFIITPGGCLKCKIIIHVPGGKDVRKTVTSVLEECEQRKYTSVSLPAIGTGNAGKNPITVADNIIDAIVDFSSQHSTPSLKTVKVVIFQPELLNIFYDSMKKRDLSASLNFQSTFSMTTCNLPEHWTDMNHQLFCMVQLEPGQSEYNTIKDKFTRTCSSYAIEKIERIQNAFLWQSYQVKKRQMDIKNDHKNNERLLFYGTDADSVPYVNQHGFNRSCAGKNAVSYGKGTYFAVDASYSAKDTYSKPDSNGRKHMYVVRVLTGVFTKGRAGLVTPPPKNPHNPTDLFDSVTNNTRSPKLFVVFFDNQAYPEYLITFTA


Target: T1, GFP-tagged PARP15^FL H559Y (human)
Experiment: co-IP

Row | Binder | binding
1 | HA-tagged PARP15^FL H559Y (enzyme, UniProt Q460N3 1-678) MAAPGPLPAAALSPGAPTPRELMHGVAGVTSRAGRDREAGSVLPAGNRGARKASRRSSSRSMSRDNKFSKKDCLSIRNVVASIQTKEGLNLKLISGDVLYIWADVIVNSVPMNLQLGGGPLSRAFLQKAGPMLQKELDDRRRETEEKVGNIFMTSGCNLDCKAVLHAVAPYWNNGAETSWQIMANIIKKCLTTVEVLSFSSITFPMIGTGSLQFPKAVFAKLILSEVFEYSSSTRPITSPLQEVHFLVYTNDDEGCQAFLDEFTNWSRINPNKARIPMAGDTQGVVGTVSKPCFTAYEMKIGAITFQVATGDIATEQVDVIVNSTARTFNRKSGVSRAILEGAGQAVESECAVLAAQPHRDFIITPGGCLKCKIIIHVPGGKDVRKTVTSVLEECEQRKYTSVSLPAIGTGNAGKNPITVADNIIDAIVDFSSQHSTPSLKTVKVVIFQPELLNIFYDSMKKRDLSASLNFQSTFSMTTCNLPEHWTDMNHQLFCMVQLEPGQSEYNTIKDKFTRTCSSYAIEKIERIQNAFLWQSYQVKKRQMDIKNDHKNNERLLFYGTDADSVPYVNQHGFNRSCAGKNAVSYGKGTYFAVDASYSAKDTYSKPDSNGRKHMYVVRVLTGVFTKGRAGLVTPPPKNPHNPTDLFDSVTNNTRSPKLFVVFFDNQAYPEYLITFTA | binds
2 | HA-PARP15^FL H559Y D665R (enzyme, UniProt Q460N3 1-678) MAAPGPLPAAALSPGAPTPRELMHGVAGVTSRAGRDREAGSVLPAGNRGARKASRRSSSRSMSRDNKFSKKDCLSIRNVVASIQTKEGLNLKLISGDVLYIWADVIVNSVPMNLQLGGGPLSRAFLQKAGPMLQKELDDRRRETEEKVGNIFMTSGCNLDCKAVLHAVAPYWNNGAETSWQIMANIIKKCLTTVEVLSFSSITFPMIGTGSLQFPKAVFAKLILSEVFEYSSSTRPITSPLQEVHFLVYTNDDEGCQAFLDEFTNWSRINPNKARIPMAGDTQGVVGTVSKPCFTAYEMKIGAITFQVATGDIATEQVDVIVNSTARTFNRKSGVSRAILEGAGQAVESECAVLAAQPHRDFIITPGGCLKCKIIIHVPGGKDVRKTVTSVLEECEQRKYTSVSLPAIGTGNAGKNPITVADNIIDAIVDFSSQHSTPSLKTVKVVIFQPELLNIFYDSMKKRDLSASLNFQSTFSMTTCNLPEHWTDMNHQLFCMVQLEPGQSEYNTIKDKFTRTCSSYAIEKIERIQNAFLWQSYQVKKRQMDIKNDHKNNERLLFYGTDADSVPYVNQHGFNRSCAGKNAVSYGKGTYFAVDASYSAKDTYSKPDSNGRKHMYVVRVLTGVFTKGRAGLVTPPPKNPHNPTDLFDSVTNNTRSPKLFVVFFRNQAYPEYLITFTA | no binding

From doi:10.64898/2025.12.15.694324
